The values below come from paper PMC7434441.

For one experiment, the target named is T1, BCL9-HA (UniProt O00512).
T1 sequence: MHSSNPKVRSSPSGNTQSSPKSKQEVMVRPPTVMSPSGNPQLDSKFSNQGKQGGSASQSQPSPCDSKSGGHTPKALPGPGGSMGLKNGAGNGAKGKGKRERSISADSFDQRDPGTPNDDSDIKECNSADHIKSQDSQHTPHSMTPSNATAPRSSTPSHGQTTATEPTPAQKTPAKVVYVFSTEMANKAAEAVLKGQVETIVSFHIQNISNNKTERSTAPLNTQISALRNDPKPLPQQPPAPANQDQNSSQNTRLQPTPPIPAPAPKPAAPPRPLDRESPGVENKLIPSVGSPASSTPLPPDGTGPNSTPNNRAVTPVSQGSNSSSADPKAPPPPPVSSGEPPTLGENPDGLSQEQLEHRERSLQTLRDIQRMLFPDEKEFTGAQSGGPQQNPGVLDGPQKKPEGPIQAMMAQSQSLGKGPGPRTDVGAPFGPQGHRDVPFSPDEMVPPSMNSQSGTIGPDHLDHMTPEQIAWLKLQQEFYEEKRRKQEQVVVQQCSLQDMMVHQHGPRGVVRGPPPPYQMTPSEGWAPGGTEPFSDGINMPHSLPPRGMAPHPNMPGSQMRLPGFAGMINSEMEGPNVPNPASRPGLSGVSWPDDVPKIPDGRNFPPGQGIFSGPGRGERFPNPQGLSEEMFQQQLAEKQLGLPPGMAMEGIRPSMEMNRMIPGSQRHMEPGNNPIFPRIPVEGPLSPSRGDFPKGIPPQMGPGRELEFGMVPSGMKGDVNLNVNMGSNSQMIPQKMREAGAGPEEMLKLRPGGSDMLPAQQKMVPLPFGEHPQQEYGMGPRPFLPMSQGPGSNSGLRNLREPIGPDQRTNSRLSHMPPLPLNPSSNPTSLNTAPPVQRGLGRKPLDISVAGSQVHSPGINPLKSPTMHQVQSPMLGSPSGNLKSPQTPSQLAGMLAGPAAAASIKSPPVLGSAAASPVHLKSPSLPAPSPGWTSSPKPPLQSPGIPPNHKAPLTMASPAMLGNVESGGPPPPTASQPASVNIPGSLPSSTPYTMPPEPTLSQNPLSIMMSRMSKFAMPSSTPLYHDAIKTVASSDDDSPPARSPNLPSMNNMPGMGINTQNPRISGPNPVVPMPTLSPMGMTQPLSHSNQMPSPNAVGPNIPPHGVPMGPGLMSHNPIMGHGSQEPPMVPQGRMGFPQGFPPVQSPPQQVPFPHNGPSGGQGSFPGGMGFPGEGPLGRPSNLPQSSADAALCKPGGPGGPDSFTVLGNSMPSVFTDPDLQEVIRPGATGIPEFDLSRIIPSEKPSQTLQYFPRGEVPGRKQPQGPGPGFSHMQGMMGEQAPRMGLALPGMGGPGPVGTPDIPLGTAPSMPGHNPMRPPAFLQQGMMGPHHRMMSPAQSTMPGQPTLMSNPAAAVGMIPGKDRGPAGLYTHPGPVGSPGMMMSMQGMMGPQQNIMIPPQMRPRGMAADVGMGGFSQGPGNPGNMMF
Kind of experiment: proximity ligation; NaveniFlex MR in situ PLA in transiently transfected HEK293T cells on coverslips; rabbit anti-HA paired with mouse anti-FLAG or anti-GFP; plasmids 1:1.

For experiment [1], the target named is T2, BCL9 (full-length, endogenous in control mouse colorectal tumors) (mouse (endogenous in mouse colorectal tumors)) (UniProt Q9D219).
T2 sequence: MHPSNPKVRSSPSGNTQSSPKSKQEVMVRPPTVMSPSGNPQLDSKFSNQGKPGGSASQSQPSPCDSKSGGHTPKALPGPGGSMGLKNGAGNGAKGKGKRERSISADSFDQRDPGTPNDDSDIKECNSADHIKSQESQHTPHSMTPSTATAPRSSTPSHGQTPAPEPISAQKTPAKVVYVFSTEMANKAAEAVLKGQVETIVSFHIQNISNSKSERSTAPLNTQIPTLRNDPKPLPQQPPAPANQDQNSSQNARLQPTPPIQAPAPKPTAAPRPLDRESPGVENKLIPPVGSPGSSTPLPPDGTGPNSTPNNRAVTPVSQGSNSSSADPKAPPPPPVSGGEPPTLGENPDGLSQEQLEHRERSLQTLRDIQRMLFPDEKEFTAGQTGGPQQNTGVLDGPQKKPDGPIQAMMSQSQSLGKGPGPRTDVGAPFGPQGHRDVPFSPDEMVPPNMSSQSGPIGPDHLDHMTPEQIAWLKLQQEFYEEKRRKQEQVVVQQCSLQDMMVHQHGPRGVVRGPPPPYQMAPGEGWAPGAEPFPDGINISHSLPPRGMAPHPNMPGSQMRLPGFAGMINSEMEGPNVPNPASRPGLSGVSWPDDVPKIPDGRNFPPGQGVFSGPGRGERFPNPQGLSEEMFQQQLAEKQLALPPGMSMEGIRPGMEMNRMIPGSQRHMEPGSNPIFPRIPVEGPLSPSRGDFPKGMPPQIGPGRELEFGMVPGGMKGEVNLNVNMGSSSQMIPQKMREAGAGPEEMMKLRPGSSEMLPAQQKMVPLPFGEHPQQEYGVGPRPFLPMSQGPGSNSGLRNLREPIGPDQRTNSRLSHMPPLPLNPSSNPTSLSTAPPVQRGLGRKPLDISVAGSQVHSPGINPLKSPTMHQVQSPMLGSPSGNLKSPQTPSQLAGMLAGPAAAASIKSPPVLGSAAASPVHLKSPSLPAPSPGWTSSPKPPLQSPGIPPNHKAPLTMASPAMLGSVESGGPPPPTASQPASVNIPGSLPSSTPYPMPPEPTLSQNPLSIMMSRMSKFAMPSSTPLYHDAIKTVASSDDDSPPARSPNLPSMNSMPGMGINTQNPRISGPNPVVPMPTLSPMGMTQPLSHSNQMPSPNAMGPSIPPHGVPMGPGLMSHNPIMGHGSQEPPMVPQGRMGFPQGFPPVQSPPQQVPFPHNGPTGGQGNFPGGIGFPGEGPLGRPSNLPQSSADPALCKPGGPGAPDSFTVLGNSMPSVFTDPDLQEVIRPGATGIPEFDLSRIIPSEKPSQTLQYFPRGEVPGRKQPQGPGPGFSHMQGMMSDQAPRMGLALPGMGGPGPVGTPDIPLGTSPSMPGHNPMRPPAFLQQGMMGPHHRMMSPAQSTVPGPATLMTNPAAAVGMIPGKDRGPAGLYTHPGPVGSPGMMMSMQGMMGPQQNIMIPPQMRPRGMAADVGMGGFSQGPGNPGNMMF
In words: co-IP; the same anti-BCL9 immunoprecipitates of control or Bcl9/9l-ΔHD1 mouse tumor extracts, SDS-PAGE and blot probed with anti-TBX3.

These are yes or no findings as the source states them, for the method shown. Binding seen in cells or lysates may run through a third protein. Some results given as binding are weak or reduced against the parent protein; the word gives no strength. For some assays here: Tags and fused reporters may be left off the sequences shown.

B1: TBX3-3xflag (protein, UniProt O15119 1-743)
chain: MSLSMRDPVIPGTSMAYHPFLPHRAPDFAMSAVLGHQPPFFPALTLPPNGAAALSLPGALAKPIMDQLVGAAETGIPFSSLGPQAHLRPLKTMEPEEEVEDDPKVHLEAKELWDQFHKRGTEMVITKSGRRMFPPFKVRCSGLDKKAKYILLMDIIAADDCRYKFHNSRWMVAGKADPEMPKRMYIHPDSPATGEQWMSKVVTFHKLKLTNNISDKHGFTLAFPSDHATWQGNYSFGTQTILNSMHKYQPRFHIVRANDILKLPYSTFRTYLFPETEFIAVTAYQNDKITQLKIDNNPFAKGFRDTGNGRREKRKQLTLQSMRVFDERHKKENGTSDESSSEQAAFNCFAQASSPAASTVGTSNLKDLCPSEGESDAEAESKEEHGPEACDAAKISTTTSEEPCRDKGSPAVKAHLFAAERPRDSGRLDKASPDSRHSPATISSSTRGLGAEERRSPVREGTAPAKVEEARALPGKEAFAPLTVQTDAAAAHLAQGPLPGLGFAPGLAGQQFFNGHPLFLHPSQFAMGGAFSSMAAAGMGPLLATVSGASTGVSGLDSTAMASAAAAQGLSGASAATLPFHLQQHVLASQGLAMSPFGSLFPYPYTYMAAAAAASSAAASSSVHRHPFLNLNTMRPRLRYSPYSIPVPVPDGSSLLTTALPSMAAAAGPLDGKVAALAASPASVAVDSGSELNSRSSTLSSSSMSLSPKLCAEKEAATSELQSIQRLVSGLEAKPDRSRSASP
As for B1, in the experiment with BCL9-HA, the binding result was “binds”.

B2: TBX3 (endogenous in mouse colorectal tumors) (protein, UniProt P70324 1-741)
chain: MSLSMRDPVIPGTSMAYHPFLPHRAPDFAMSAVLGHQPPFFPALTLPPNGAAALSLPGALAKPIMDQLVGAAETGIPFSSLGPQAHLRPLKTMEPEEDVEDDPKVHLEAKELWDQFHKRGTEMVITKSGRRMFPPFKVRCSGLDKKAKYILLMDIIAADDCRYKFHNSRWMVAGKADPEMPKRMYIHPDSPATGEQWMSKVVTFHKLKLTNNISDKHGFTLAFPSDHATWQGNYSFGTQTILNSMHKYQPRFHIVRANDILKLPYSTFRTYLFPETEFIAVTAYQNDKITQLKIDNNPFAKGFRDTGNGRREKRKQLTLQSMRVFEERHKKETSDESSSEQAAFNCFAQASSPAVSIVGTSNLKDLCPSEAESDAEAESKEEHGPEACDAAKISTTTAEEPGRDKGSPATRAQLFPAEPSRARDTARLDKASPDSRHSPATISSSTRVPGADERRSPGREGPVATKVDEARAIPAKDAFAPLSVQTDATAHLAQGPLPGLGFAPGLAGQQFFNGHPLFLHPGQFAMGGAFSSMAAGMGPLLATVSGASTGVSGLESTAMASAAAAQGLSGASAATLPFHLQQHVLASQGLAMSPFGSLFPYPYTYMAAAAAASTAAASSSVHRHPFLNLNSMRPRLRYSPYSIPVPVPDSSSLLATALPSMASAAGPLDGKAAALAASPASVAVDSGSELNSRSSTLSSGSVSLSPKLCSEKEAATSELQSIQRLVSGLEAKPDRSCSGSP
Take B2: the binding entry in experiment [1] was “binds”.
